Reference: PubChem BioAssay AID504467 (National Center for Advancing Translational Sciences (NCATS), 2011)
Out of some 330,000 compounds screened, about 7,700 (2.3%) were called active. The inconclusive results got no clear call from the source; some entries with a clear call stand among them for comparison. Calls follow the shape of the dose curve; as a rule, active = well fitted inhibition curve with a large enough effect; inconclusive = small, poorly fitted or top-dose-only effect, or effect the other way; inactive = flat fitted curve, though single readings scatter. A potency beside an inconclusive call is a rough fit, not a confirmed value.

Assay: qHTS screen for small molecules that inhibit ELG1-dependent DNA repair in human embryonic kidney (HEK293T) cells expressing luciferase-tagged ELG1; also: nearly all actives have a fitted effect of over 55% in size
Conditions: HEK293T ELG1-luciferase reporter, luminescence, 16 h, DNA damage induced by 5-fluorouridine; series mostly up to 46.1 µM
Outline: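 In this reporter screen, reduction of luminescence relative to DMSO vehicle indicated activity. Compounds and 5-fluorouridine were added together to 2,000 cells per well, incubated for 16 hr at 37 °C, then developed with ONE-Glo.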
Potency is read from the fitted curve at half-maximal effect.

Row | SMILES | Potency
1 | C=CCNC(=O)C1CC(=O)N(c2ccc(OCC(=O)Nc3ccccc3)cc2)C1 (configuration not stated) | inconclusive: 18.4 µM [activator, partial curve]
2 | COc1cccc(-c2noc(C(C)n3nc(C)c([N+](=O)[O-])c3C)n2)c1 (configuration not stated) | inconclusive: 20.6 µM [activator, partial curve, poor fit]
3 | CNC(=O)COC(=O)/C=C/c1cn(-c2ccccc2)nc1-c1ccc2c(c1)OCCO2 | inconclusive: 14.6 µM [inhibitor, partial curve, poor fit]
4 | COc1ccccc1NS(=O)(=O)c1cccc(C(=O)OCC(=O)NC2CC2)c1 | inconclusive: 8.2 µM [activator, partial curve]
5 | COc1ccc(-c2cc(C)no2)cc1S(=O)(=O)N1CCN(c2ccccn2)CC1 | inconclusive: 25.9 µM [inhibitor, single point]
6 | O=C(Nc1cccc2ccccc12)N1CCOCC1 | inactive
7 | CCOC(=O)c1[nH]c2ccccc2c1NC(=S)Nc1cc(C)ccc1C | inconclusive: 18.4 µM [activator, partial curve]
8 | N#Cc1ccsc1NC(=O)CN1CCN(c2ccccc2O)CC1 | inconclusive: 29.1 µM [inhibitor, single point]
9 | Cc1cc2cc(CNC(=O)c3ccc(C)c([N+](=O)[O-])c3)ccc2[nH]1 | inconclusive: 23.1 µM [inhibitor, single point]
10 | COc1cc(C(=O)NC2CCN(Cc3nnnn3Cc3cccs3)CC2)cc(OC)c1OC | inconclusive: 20.6 µM [inhibitor, single point]
11 | CCSc1nc(N)c(C#N)c(-c2ccco2)c1C#N | inconclusive: 32.6 µM [inhibitor, partial curve, poor fit]
12 | O=C(Nc1ccc2ccccc2n1)C1CCCCC1 | inconclusive: 2.91 µM [activator, partial curve]
13 | COC(=O)c1ccc(COC(=O)[C@@H]2CC(O)CN2S(=O)(=O)c2ccccc2[N+](=O)[O-])cc1 (some centres not stated) | inactive
14 | C/C=C/Cn1c(SCc2ccc(Cl)cc2)nc2c1c(=O)[nH]c(=O)n2C | inactive
15 | Nc1nccc(-c2ccc(-n3cccc3)cc2)n1 | inconclusive: 7.3 µM [activator, partial curve]
16 | CC(CCc1ccccc1)NC(=O)CNC(=S)N(Cc1cccs1)C1CCCC1 (configuration not stated) | inconclusive: 23.1 µM [inhibitor, single point]
17 | C#Cc1cccc(NC(=O)c2ccc(Cl)cc2Cl)c1 | inconclusive: 16.4 µM [activator, partial curve]
18 | O=C(c1ccc(=O)oc1)N1CCC(C(O)(c2ccccc2)c2ccccc2)CC1 | inconclusive: 6.51 µM [inhibitor, single point]
19 | CC(=O)OC[C@H]1O[C@@H](n2ncc(=O)[nH]c2=O)[C@H](OC(C)=O)[C@@H]1OC(C)=O | inconclusive: 23.1 µM [activator, partial curve, poor fit]
20 | COc1cc(OC)cc(C(=O)N[C@H](C(=O)Nc2ccc(S(=O)(=O)N(C)C)cc2)C(C)C)c1 | inconclusive: 29.1 µM [inhibitor, single point]
21 | Fc1ccc(NC(=S)Nc2ccccc2Cl)cc1 | inconclusive: 23.1 µM [inhibitor, single point]
22 | CCn1c(SCC(=O)Nc2ccc3c(c2)OCCO3)nnc1-c1cccs1 | inactive
23 | FC(F)(F)c1cnc(-c2cnc3c(-c4ccc(Cl)cc4)cnn3c2)c(Cl)c1 | inactive

Row | SMILES | Potency
24 | O=C1NC(=Nc2ccccc2)S/C1=C\C=C\c1ccco1 | inconclusive: 14.6 µM [activator, partial curve]
25 | C(=N\NC1=Nc2cccc3cccc1c23)/c1ccccc1 | inconclusive: 1.84 µM [activator, full curve]
26 | O=C1Nc2ccccc2OC1CC(=O)N1CCN(c2cccc(C(F)(F)F)c2)CC1 (configuration not stated) | inconclusive: 29.1 µM [inhibitor, single point]
27 | COc1ccc2c(c1)[nH]c1c(=O)n(/N=C/C3C(C)C=C(C)CC3C)c(=O)[nH]c12 (configuration not stated) | inconclusive: 3.26 µM [activator, single point]
28 | Cc1cc(S(=O)(=O)Nc2cccc(O)c2)c(C)s1 | inconclusive: 29.1 µM [inhibitor, single point]
29 | COc1ccc(OC)c(-c2cc(C(=O)Nc3c(C)nn(Cc4ccccc4C)c3C)no2)c1 | active: 25.9 µM
30 | C/C(=N\NC(=O)Nc1ccccc1)c1ccccc1 | inconclusive: 16.4 µM [activator, single point]
31 | Cc1ccc(S(=O)(=O)Nc2ccc3c(c2)nc(C)n3C)cc1 | inconclusive: 20.6 µM [inhibitor, single point]
32 | CCn1cc(-c2cc(C(=O)O)c3ccccc3n2)cn1 | inactive
33 | COC(=O)CN1C(=O)[C@H]2[C@@H](c3ccc(C)o3)N3C(=O)CN(CC4CC4)C(=O)[C@@]3(C)[C@H]2C1=O | inactive
34 | CCn1ncc(Br)c1C(=O)Nc1ccc2c(c1)OCCO2 | inconclusive: 23.1 µM [activator, partial curve]
35 | CC1=CC(C)(C)Nc2ccc(OC(=O)c3cccnc3)cc21 | inactive
36 | CCN1CCN(Cc2nnc(-c3ccc(C)cc3)o2)CC1 | inactive
37 | O=C(CN1CCN(c2ccc(F)cc2)CC1)NCc1ccc(Cl)cc1 | inactive
38 | CCn1cc(S(=O)(=O)N2CCCC2)cn1 | inconclusive: 23.1 µM [activator, single point]
39 | CC(=O)n1cc(/C=N/NC(=O)c2ccccc2Cl)c2ccccc21 | inconclusive: 20.6 µM [activator, single point]
40 | Cc1cc[n+](CC(=O)Nc2cc(C(F)(F)F)ccc2Cl)cc1 | inactive
41 | Cc1cc(O)ccc1N/C=C/c1onc(C)c1[N+](=O)[O-] | inconclusive: 5.17 µM [activator, partial curve]
42 | COc1cc2c(cc1OC)C1(Nc3c-2c(C)nn3-c2ccccc2)C(=O)Nc2ccccc21 (configuration not stated) | inconclusive: 25.9 µM [inhibitor, single point]
43 | O=C(CCc1ccccc1)Nc1ccnn1C1CCN(Cc2ccc(OCCO)cc2)CC1 | inconclusive: 16.4 µM [activator, partial curve]
44 | CCN(CC)S(=O)(=O)c1cccc(NC(=O)C2SC(=Nc3ccc(C)cc3C)C(C(=O)NCC3CCCO3)=C2N)c1 (configuration not stated) | inconclusive: 29.1 µM [inhibitor, single point]
45 | COc1cccc(-c2nn3c(-c4cccc(C)c4)nnc3s2)c1 | inconclusive: 31.6 µM [activator, single point]
46 | C=CC[C@@H](CC(=O)N(CCO)Cc1ccccc1)C(=O)N[C@H](COC(=O)[C@@H](CC=C)CC(=O)OC(C)(C)C)c1ccccc1 | inconclusive: 29.1 µM [inhibitor, single point]

Random excerpt: 3 compounds from above
Row | SMILES | Potency
25 | C(=N\NC1=Nc2cccc3cccc1c23)/c1ccccc1 | inconclusive: 1.84 µM [activator, full curve]
31 | Cc1ccc(S(=O)(=O)Nc2ccc3c(c2)nc(C)n3C)cc1 | inconclusive: 20.6 µM [inhibitor, single point]
27 | COc1ccc2c(c1)[nH]c1c(=O)n(/N=C/C3C(C)C=C(C)CC3C)c(=O)[nH]c12 (configuration not stated) | inconclusive: 3.26 µM [activator, single point]

Following part:

Row | SMILES | Potency
47 | COc1ccc(CC(=O)Nc2cc(S(=O)(=O)N3CCCCC3)ccc2C)cc1OC | active: 2.06 µM
48 | CN1CCC(N(C)C(=O)COc2ccccc2Cl)CC1 | inactive
49 | COc1ccccc1C(=O)NCCC(=O)NNC(=O)c1ccccc1O | inconclusive: 29.1 µM [inhibitor, single point]
50 | COc1cccc(N2CCN(c3ccc4nnc(CCC(=O)Nc5ccc(OC)c(OC)c5)n4n3)CC2)c1 | inconclusive: 25.9 µM [inhibitor, partial curve, poor fit]
51 | Cc1cc2nc(-c3ccccc3)cc(=O)n2[nH]1 | inconclusive: 14.6 µM [activator, partial curve]
52 | Cc1ccc(C)c2c1cc(C)c1nnc(SCC(=O)NCc3ccc4c(c3)OCO4)n12 | inactive
53 | O=C(c1cc(C2CC2)nn1-c1ccccc1)N1CCN(S(=O)(=O)c2cccc(F)c2)CC1 | inconclusive: 29.1 µM [inhibitor, single point]
54 | Cc1ccc(-c2cc(C(=O)NC3CCCC3)no2)cc1 | inconclusive: 7.3 µM [activator, partial curve]
55 | COc1ccc(-c2cc(=Nc3ccc(C(=O)O)cc3)c3cc(C)ccc3o2)cc1 | inconclusive: 5.8 µM [activator, full curve]
56 | O=C(c1ccc(S(=O)(=O)Nc2cccc(C(F)(F)F)c2)cc1)N1CCN(c2ccccc2O)CC1 | inactive
57 | CC(C)(C)c1ccc(C(=O)N2CCN(Cc3ccccc3)CC2)cc1 | inconclusive: 29.1 µM [inhibitor, single point]
58 | COc1ccccc1N1CCN(/N=C\c2cccnc2)CC1 | inconclusive: 29.1 µM [activator, single point]
59 | CCC(C(=O)NC1CCCCC1)n1c(SCc2cccc(C)c2)nc2ccncc21 (configuration not stated) | inactive
60 | CC(=O)CCC1CC(c2ccc(Cl)cc2)=NO1 (configuration not stated) | inconclusive: 12.6 µM [activator, partial curve]
61 | CC1=NN(c2ccccc2)C(=O)/C1=C\c1c(C)[nH]n(-c2ccccc2)c1=O | inactive
62 | O=S(=O)(NCc1ccncc1)c1ccc(Br)s1 | inconclusive: 0.517 µM [inhibitor, partial curve, poor fit]
63 | Cc1nc2ccccn2c1-c1csc(NCc2ccco2)n1 | inconclusive: 9.2 µM [inhibitor, partial curve, poor fit]
64 | COc1ccc(CCNC(=O)c2c(-c3ccccc3Cl)noc2C)cc1 | inconclusive: 7.31 µM [inhibitor, partial curve, poor fit]
65 | Cc1ccc(C)c(OCc2cc(C(=O)N3CCNC(=O)C3)no2)c1 | inactive
66 | Cn1c(=NC(=O)c2cccc([N+](=O)[O-])c2)sc2ccccc21 | inconclusive: 1.64 µM [activator, full curve]
67 | C/C(=N\Nc1nccnc1Cl)c1ccc(F)cc1 | inconclusive: 23.1 µM [activator, single point]
